Test results reported in PMC4267739, “Functional Characterization of Corynebacterium glutamicum Mycothiol S-Conjugate Amidase” (PLoS ONE, 2014).
These are yes or no findings as the source states them, for the method shown. Tags and fused reporters may be left off the sequences shown.

Molecular target: Corynebacterium glutamicum mycothiol S-conjugate amidase (Mca), recombinant His6-Mca (Corynebacterium glutamicum) (UniProt Q8NRQ7)
Experiment: SEC; analytical gel filtration by HPLC on HiLoad 26/600 Superdex 200 GL; 50 mM potassium phosphate buffer pH 7.2, 0.15 M NaCl; calibrated with protein standards of 6.5-158 kDa; both purified

- binding: no binding
B1: Corynebacterium glutamicum mycothiol S-conjugate amidase (Mca), recombinant His6-Mca (enzyme, UniProt Q8NRQ7 1-291)
chain: MSGLRLMAIHAHPDDESSKGAATMARYAAEGNQVMVVTCTGGERGDILNPAMDKPGILDNIFAVRQEEMAKAMEILGTEHRWLGYEDSGLPQGDPLPPLPEGCFALEDSDKVTQDLVKILREFRPHVIITYDENGGYPHPDHLKVHEVSMLAWEKSGDAAYAPELGAPWEPLKLYYTHGFIRQRMEMFHDLLIEQGKPSPYTPMLERWKANEADVMARVTTQVPCERFFDQRDDALRAHATQIDPAGAFFGTPVEVQRRLWPTEEFELAKTRVKTSIPEDDLFAGITPDAE
